{
  "source": "patent US5750552A",
  "about": "“Imidazoline derivative, possible tautomer thereof, and vulnerary including such derivative or tautomer” (Arax Co., Ltd., priority 1995, dated 1998)",
  "system": "wound in rat",
  "assay": "Healing effect on wound in rat",
  "type": "in vivo, SD rats",
  "settings": "TABLES 7 and 8",
  "experimental": "Healing Effect on wound in rat\nMale 7-week SD rats were classified into groups each consisting of 6-7 rats, such that all the groups have substantially the same average weight. The experiment was performed on the rats according to a method of Tsurumi et al. (Oyo Yakuri, Vol. 7, pp833, 1973). Initially, the rats were subjected to an anesthesia with pentobarbital. The hair of the back of each rat was clipped, and the skin was disinfected with 70% ethanol. Then, the skin was lightly pulled and punched off in a direction from the right to the left by means of a punch whose diameter is 10 mm, so as to form two open wounds on portions of the back of the rat which are symmetrical to each other with respect to the center line of the back. The compounds of Examples indicated in the following TABLES 7 and 8 were used as specimen drugs, and orally administered once a day to each of the rats with doses indicated in the TABLES 7 and 8. […]\nTo clarify the healing effect on the wounds, an Healing Index and healing days were obtained in the following manner. Initially, the lengths of a major axis and a minor axis of each wound formed on the back were measured using calipers. On the basis of the measured length values, the area of each wound was calculated as the area of an ellipse. […]",
  "note": "For at least one compound, name, drawing or mass did not settle the structure.",
  "data": [
    {"smiles": "CN(C)c1ccccc1C[S+]([O-])C1=NC(C)(C)C(=S)N1", "note": "(stereo not shown) [Example 2, 2-(2-dimethylaminobenzylsulfinyl)-5,5-dimethylimidazolin-4-thione]", "values": [
      {"measurement": "effect on healing days and Healing Index (in words)", "result": "effective to reduce the healing days and lower the Healing Index"}
    ]}
  ]
}
